{"source": "patent US20250282819A1", "about": "“MITOCHONDRIA-[…] PEPTIDE THAT CAN BE […] DELIVERED AT NANOMOLAR CONCENTRATION, AND USE THEREOF” (CAMP THERAPEUTICS INC., priority 2021, published 2025)", "assay": "Oligomerization tendency by HPLC retention time at 40 and 5° C.", "format": "physicochemical", "details": "10 μl of 0.2 mM peptide", "description": "Specifically, 10 μl of each peptide solution at 0.2 mM was injected into HPLC, and the time at which the peptide was detected (RT) was measured at 40° C. and 5° C., respectively. Here, the stationary phase and mobile phase conditions of the HPLC were set using well-known methods. In general, the better the oligomer is formed, the detection time becomes longer at 40° C., which is a relatively higher temperature, thereby resulting in larger ΔΔRT that is a difference from the value measured at 5° C.", "note": "Part of at least one peptide drawing is inferred or uncertain, most often the ends. Where a SMILES comes first, the peptide text is derived from it."}
{"smiles": "CC(=O)N[C@@H](CC1CCCCC1)C(=O)N[C@H]1CSSC[C@@H](C(=O)N[C@@H](CCCNC(=N)N)C(N)=O)NC(=O)[C@H](CC(C)C)NC(=O)[C@H](CCCNC(=N)N)NC(=O)[C@H](CCCNC(=N)N)NC(=O)[C@H](CC2CCCCC2)NC(=O)[C@H](CC2CCCCC2)NC(=O)[C@H](CCCNC(=N)N)NC(=O)[C@@H](NC(=O)[C@H](CC2CCCCC2)NC(C)=O)CSSC[C@@H](C(=O)N[C@@H](CCCNC(=N)N)C(N)=O)NC(=O)[C@H](CC(C)C)NC(=O)[C@H](CCCNC(=N)N)NC(=O)[C@H](CCCNC(=N)N)NC(=O)[C@H](CC2CCCCC2)NC(=O)[C@H](CC2CCCCC2)NC(=O)[C@H](CCCNC(=N)N)NC1=O", "note": "[CMP3011] (HELM PEPTIDE1{[ac].[Cha].C.R.[Cha].[Cha].R.R.L.C.R.[am]}|PEPTIDE2{[ac].[Cha].C.R.[Cha].[Cha].R.R.L.C.R.[am]}$PEPTIDE1,PEPTIDE2,3:R3-10:R3|PEPTIDE1,PEPTIDE2,10:R3-3:R3$$$V2.0)", "values": [{"measurement": "Oligomerization tendency (RT at 40-5° C.) ΔΔRT", "result": 3.402, "unit": "min"}]}
